Source: the supplement of paper PMC7661543
Differences between knockout arms are mostly noise.

Tested on: MDA-MB-231
Assay: relative cell number vs DMSO control (72 h) (% of DMSO); higher = less growth inhibition (more cells)
Method: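 QMAP-Seq: a pool of 5 breast cancer cell lines (ZR-75-1, SKBR3, HCC-38, MDA-MB-231, BT-20), each carrying 12 doxycycline-inducible Cas9 sgRNA perturbations (11 knockouts plus non-targeting sgNT), was treated with compounds for 72 h at four 10-fold doses (10 nM-10 uM or 1 nM-1 uM range). Barcodes were amplified and sequenced, and cell number was interpolated from 293T spike-in standard curves. The result is expressed as % of the median of DMSO wells. Two biological replicates.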

Cc1ccc(C(=O)N(CCCN)[C@@H](c2oc3cc(Cl)ccc3c(=O)c2Cc2ccccc2)C(C)C)cc1
Settings	relative cell number
sgRNA knockout: sgATF3, 10 nM	20.6
sgRNA knockout: sgATF3, 100 nM	33.9
sgRNA knockout: sgATF3, 1000 nM	37.3
sgRNA knockout: sgATF3, 10000 nM	4.04
sgRNA knockout: sgATF4, 10 nM	28.6
sgRNA knockout: sgATF4, 100 nM	31
sgRNA knockout: sgATF4, 1000 nM	28.5
sgRNA knockout: sgATF4, 10000 nM	3.47
sgRNA knockout: sgATF6, 10 nM	20.7
sgRNA knockout: sgATF6, 100 nM	41.6
sgRNA knockout: sgATF6, 1000 nM	32.3
sgRNA knockout: sgATF6, 10000 nM	2.88
sgRNA knockout: sgATG7, 10 nM	21.8
sgRNA knockout: sgATG7, 100 nM	24.4
sgRNA knockout: sgATG7, 1000 nM	32.42
sgRNA knockout: sgATG7, 10000 nM	3.49
sgRNA knockout: sgERN1, 10 nM	22.4
sgRNA knockout: sgERN1, 100 nM	28.8
sgRNA knockout: sgERN1, 1000 nM	29.8
sgRNA knockout: sgERN1, 10000 nM	5.17
sgRNA knockout: sgHSF1, 10 nM	27.7
sgRNA knockout: sgHSF1, 100 nM	16.8
sgRNA knockout: sgHSF1, 1000 nM	23.6
sgRNA knockout: sgHSF1, 10000 nM	6.46
sgRNA knockout: sgHSF2, 10 nM	22.7
sgRNA knockout: sgHSF2, 100 nM	25.4
sgRNA knockout: sgHSF2, 1000 nM	31.3
sgRNA knockout: sgHSF2, 10000 nM	3.92
sgRNA knockout: sgKEAP1, 10 nM	26
sgRNA knockout: sgKEAP1, 100 nM	22.9
sgRNA knockout: sgKEAP1, 1000 nM	24.7
sgRNA knockout: sgKEAP1, 10000 nM	3.95
sgRNA knockout: sgNFE2L2, 10 nM	25.5
sgRNA knockout: sgNFE2L2, 100 nM	25.8
sgRNA knockout: sgNFE2L2, 1000 nM	27.2
sgRNA knockout: sgNFE2L2, 10000 nM	3.65
sgRNA knockout: sgSLC35F2, 10 nM	23.1
sgRNA knockout: sgSLC35F2, 100 nM	22.1
sgRNA knockout: sgSLC35F2, 1000 nM	27.6
sgRNA knockout: sgSLC35F2, 10000 nM	4.2
sgRNA knockout: sgXBP1, 10 nM	19.4
sgRNA knockout: sgXBP1, 100 nM	23
sgRNA knockout: sgXBP1, 1000 nM	27.5
sgRNA knockout: sgXBP1, 10000 nM	4.74

Cc1ccc(S(=O)(=O)OCC(=O)Nc2ccc(C(=O)O)c(O)c2)cc1
Settings	relative cell number
sgRNA knockout: sgATF3, 10 nM	117
sgRNA knockout: sgATF3, 100 nM	89.1
sgRNA knockout: sgATF3, 1000 nM	121
sgRNA knockout: sgATF3, 10000 nM	99.7
sgRNA knockout: sgATF4, 10 nM	97.5
sgRNA knockout: sgATF4, 100 nM	130
sgRNA knockout: sgATF4, 1000 nM	120
sgRNA knockout: sgATF4, 10000 nM	102
sgRNA knockout: sgATF6, 10 nM	117
sgRNA knockout: sgATF6, 100 nM	84.7
sgRNA knockout: sgATF6, 1000 nM	103
sgRNA knockout: sgATF6, 10000 nM	91.1
sgRNA knockout: sgATG7, 10 nM	106
sgRNA knockout: sgATG7, 100 nM	88
sgRNA knockout: sgATG7, 1000 nM	95.5
sgRNA knockout: sgATG7, 10000 nM	85.9
sgRNA knockout: sgERN1, 10 nM	173
sgRNA knockout: sgERN1, 100 nM	92.7
sgRNA knockout: sgERN1, 1000 nM	90.9
sgRNA knockout: sgERN1, 10000 nM	97.5
sgRNA knockout: sgHSF1, 10 nM	109
sgRNA knockout: sgHSF1, 100 nM	95.9
sgRNA knockout: sgHSF1, 1000 nM	81.2
sgRNA knockout: sgHSF1, 10000 nM	75.9
sgRNA knockout: sgHSF2, 10 nM	144
sgRNA knockout: sgHSF2, 100 nM	89.6
sgRNA knockout: sgHSF2, 1000 nM	86.5
sgRNA knockout: sgHSF2, 10000 nM	96.1
sgRNA knockout: sgKEAP1, 10 nM	98.7
sgRNA knockout: sgKEAP1, 100 nM	83.3
sgRNA knockout: sgKEAP1, 1000 nM	106.7
sgRNA knockout: sgKEAP1, 10000 nM	82.1
sgRNA knockout: sgNFE2L2, 10 nM	116.1
sgRNA knockout: sgNFE2L2, 100 nM	85.9
sgRNA knockout: sgNFE2L2, 1000 nM	109
sgRNA knockout: sgNFE2L2, 10000 nM	82.7
sgRNA knockout: sgSLC35F2, 10 nM	127
sgRNA knockout: sgSLC35F2, 100 nM	73.8
sgRNA knockout: sgSLC35F2, 1000 nM	94.9
sgRNA knockout: sgSLC35F2, 10000 nM	96.6
sgRNA knockout: sgXBP1, 10 nM	106
sgRNA knockout: sgXBP1, 100 nM	108
sgRNA knockout: sgXBP1, 1000 nM	101
sgRNA knockout: sgXBP1, 10000 nM	85.5

Cc1nc(Nc2n[nH]c3c2CN(C(=O)N[C@H](CN(C)C)c2ccccc2)C3(C)C)c2sccc2n1
Settings	relative cell number
sgRNA knockout: sgATF3, 10 nM	48.6
sgRNA knockout: sgATF3, 100 nM	35.1
sgRNA knockout: sgATF3, 1000 nM	14.6
sgRNA knockout: sgATF3, 10000 nM	2.38
sgRNA knockout: sgATF4, 10 nM	44.8
sgRNA knockout: sgATF4, 100 nM	44.4
sgRNA knockout: sgATF4, 1000 nM	15.4
sgRNA knockout: sgATF4, 10000 nM	4.12
sgRNA knockout: sgATF6, 10 nM	54.4
sgRNA knockout: sgATF6, 100 nM	41
sgRNA knockout: sgATF6, 1000 nM	11.6
sgRNA knockout: sgATF6, 10000 nM	4.25
sgRNA knockout: sgATG7, 10 nM	47.1
sgRNA knockout: sgATG7, 100 nM	37.4
sgRNA knockout: sgATG7, 1000 nM	10.8
sgRNA knockout: sgATG7, 10000 nM	6.36
sgRNA knockout: sgERN1, 10 nM	49
sgRNA knockout: sgERN1, 100 nM	39.4
sgRNA knockout: sgERN1, 1000 nM	17.8
sgRNA knockout: sgERN1, 10000 nM	4.77
sgRNA knockout: sgHSF1, 10 nM	46.7
sgRNA knockout: sgHSF1, 100 nM	24.8
sgRNA knockout: sgHSF1, 1000 nM	14.6
sgRNA knockout: sgHSF1, 10000 nM	3.52
sgRNA knockout: sgHSF2, 10 nM	48.4
sgRNA knockout: sgHSF2, 100 nM	35.3
sgRNA knockout: sgHSF2, 1000 nM	12.4
sgRNA knockout: sgHSF2, 10000 nM	2.6
sgRNA knockout: sgKEAP1, 10 nM	42.2
sgRNA knockout: sgKEAP1, 100 nM	36.6
sgRNA knockout: sgKEAP1, 1000 nM	11.1
sgRNA knockout: sgKEAP1, 10000 nM	3.96
sgRNA knockout: sgNFE2L2, 10 nM	45.6
sgRNA knockout: sgNFE2L2, 100 nM	30.01
sgRNA knockout: sgNFE2L2, 1000 nM	13.6
sgRNA knockout: sgNFE2L2, 10000 nM	3.66
sgRNA knockout: sgSLC35F2, 10 nM	48.1
sgRNA knockout: sgSLC35F2, 100 nM	25.4
sgRNA knockout: sgSLC35F2, 1000 nM	19.7
sgRNA knockout: sgSLC35F2, 10000 nM	5.09
sgRNA knockout: sgXBP1, 10 nM	41.1
sgRNA knockout: sgXBP1, 100 nM	39.9
sgRNA knockout: sgXBP1, 1000 nM	10.4
sgRNA knockout: sgXBP1, 10000 nM	6.91
